For test [1], the target named is EZH2 (human (endogenous in MCF7)) (UniProt Q15910). Nature of the test: co-IP; antibodies against EZH2 or SUZ12 with protein A magnetic Dynabeads; nuclear extracts of MCF7-tet-on-shCTR9 cells treated with Dox for 0 day or 7 days (CTR9 knockdown); IP buffer 50 mM Tris-HCl pH 7.5, 150 mM NaCl, 2 mM MgCl2, 0.5% NP-40, 10% glycerol; western blot.
The target of test [2] is SUZ12 (human (endogenous in MCF7)) (UniProt Q15022). The test is described as above.

Sequences of proteins named here, by UniProt entry; tags and fusion partners are left off.
UniProt Q15910: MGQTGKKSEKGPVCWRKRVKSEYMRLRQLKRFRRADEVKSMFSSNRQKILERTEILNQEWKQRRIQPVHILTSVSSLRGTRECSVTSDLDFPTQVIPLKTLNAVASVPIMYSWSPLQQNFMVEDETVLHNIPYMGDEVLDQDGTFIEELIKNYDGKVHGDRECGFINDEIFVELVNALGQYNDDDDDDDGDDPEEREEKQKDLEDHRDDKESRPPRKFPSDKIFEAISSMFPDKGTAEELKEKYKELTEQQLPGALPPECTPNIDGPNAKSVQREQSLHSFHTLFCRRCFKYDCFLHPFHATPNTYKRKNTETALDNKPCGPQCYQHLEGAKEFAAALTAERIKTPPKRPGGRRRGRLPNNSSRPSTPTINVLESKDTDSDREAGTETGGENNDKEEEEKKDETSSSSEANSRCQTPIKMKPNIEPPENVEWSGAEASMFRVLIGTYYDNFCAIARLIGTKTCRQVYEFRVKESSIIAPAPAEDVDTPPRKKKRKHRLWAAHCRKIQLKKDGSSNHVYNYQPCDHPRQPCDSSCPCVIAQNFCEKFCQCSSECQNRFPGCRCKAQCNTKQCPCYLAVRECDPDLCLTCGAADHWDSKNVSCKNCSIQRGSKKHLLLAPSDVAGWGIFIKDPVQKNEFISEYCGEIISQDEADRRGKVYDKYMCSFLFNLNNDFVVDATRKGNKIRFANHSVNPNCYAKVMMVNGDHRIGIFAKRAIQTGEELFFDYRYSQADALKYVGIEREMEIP
UniProt Q15022: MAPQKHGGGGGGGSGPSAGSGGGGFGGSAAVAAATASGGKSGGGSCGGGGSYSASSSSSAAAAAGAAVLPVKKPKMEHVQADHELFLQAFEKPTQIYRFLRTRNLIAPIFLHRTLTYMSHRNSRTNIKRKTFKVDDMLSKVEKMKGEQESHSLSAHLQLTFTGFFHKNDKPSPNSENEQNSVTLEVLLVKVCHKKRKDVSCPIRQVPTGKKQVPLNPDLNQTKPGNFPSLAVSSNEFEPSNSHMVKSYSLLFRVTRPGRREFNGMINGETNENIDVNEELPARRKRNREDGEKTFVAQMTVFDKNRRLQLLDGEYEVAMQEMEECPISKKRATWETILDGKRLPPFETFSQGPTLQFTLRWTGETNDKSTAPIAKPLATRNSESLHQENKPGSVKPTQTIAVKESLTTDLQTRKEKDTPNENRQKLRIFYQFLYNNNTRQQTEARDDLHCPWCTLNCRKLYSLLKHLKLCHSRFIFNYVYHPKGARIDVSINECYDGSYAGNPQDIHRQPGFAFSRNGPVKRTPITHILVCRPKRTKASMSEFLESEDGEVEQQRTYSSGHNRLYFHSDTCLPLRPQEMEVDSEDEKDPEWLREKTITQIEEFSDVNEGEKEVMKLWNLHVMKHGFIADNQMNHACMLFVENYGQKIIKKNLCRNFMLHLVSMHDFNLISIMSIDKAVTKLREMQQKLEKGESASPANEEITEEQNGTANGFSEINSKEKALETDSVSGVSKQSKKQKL
UniProt A6NHQ4: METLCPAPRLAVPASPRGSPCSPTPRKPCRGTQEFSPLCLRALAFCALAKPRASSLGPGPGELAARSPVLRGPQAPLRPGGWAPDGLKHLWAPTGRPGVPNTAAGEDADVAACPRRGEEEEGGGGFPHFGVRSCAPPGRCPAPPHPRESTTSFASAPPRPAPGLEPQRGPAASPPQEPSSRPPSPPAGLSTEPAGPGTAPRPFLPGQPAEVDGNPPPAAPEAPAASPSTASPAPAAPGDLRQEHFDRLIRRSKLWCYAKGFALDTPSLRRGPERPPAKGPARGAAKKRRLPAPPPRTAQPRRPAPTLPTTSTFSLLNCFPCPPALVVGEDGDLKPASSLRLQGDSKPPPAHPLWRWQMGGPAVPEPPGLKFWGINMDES
UniProt Q9Y483: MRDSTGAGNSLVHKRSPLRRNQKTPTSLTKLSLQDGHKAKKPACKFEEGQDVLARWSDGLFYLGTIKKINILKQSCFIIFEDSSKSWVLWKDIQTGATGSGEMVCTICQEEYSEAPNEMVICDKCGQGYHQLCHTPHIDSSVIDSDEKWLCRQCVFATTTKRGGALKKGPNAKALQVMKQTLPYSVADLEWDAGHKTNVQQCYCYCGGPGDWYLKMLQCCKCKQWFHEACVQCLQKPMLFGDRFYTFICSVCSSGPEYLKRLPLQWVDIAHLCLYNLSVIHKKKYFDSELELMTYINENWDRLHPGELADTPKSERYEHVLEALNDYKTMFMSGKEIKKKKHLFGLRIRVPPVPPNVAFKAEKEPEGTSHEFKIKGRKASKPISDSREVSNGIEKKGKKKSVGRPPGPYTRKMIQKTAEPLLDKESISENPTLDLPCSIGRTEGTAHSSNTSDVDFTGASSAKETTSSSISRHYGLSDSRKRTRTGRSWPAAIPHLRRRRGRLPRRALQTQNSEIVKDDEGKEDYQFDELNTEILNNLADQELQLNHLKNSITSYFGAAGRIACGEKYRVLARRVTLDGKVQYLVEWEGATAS

Results are given in words; binding and its absence hold for the method and conditions named. In cells and extracts the contact can be indirect. Some binding calls cover weakened binding; strength is not graded here.

Turning to EPOP (from UniProt A6NHQ4 1-379), the binding result in test [1] is on record as “binds”.
On the same count and under the same terms, the entry for PHF19 (from UniProt Q5T6S3 1-580) is “binds”.
In the case of MTF2 (from UniProt Q9Y483 1-593), the binding entry in test [1] and in test [2] was “binds” in each case.

These data come from publication PMC8887485.
